Literature values in patent US6127355A (priority 1999, dated 2000).

Conditions: in words, background; cited from earlier work

Structure (SMILES): CC[C@@]1(O)C(=O)OCc2c1cc1n(c2=O)Cc2cc3ccccc3nc2-1 [Camptothecin, reference compound]
- water solubility: water-insoluble

Structure (SMILES): CC(=O)O[C@H]1C(=O)[C@@]2(C)[C@H]([C@H](OC(=O)c3ccccc3)[C@]3(O)C[C@H](OC(=O)[C@H](O)[C@@H](NC(=O)c4ccccc4)c4ccccc4)C(C)=C1C3(C)C)[C@]1(OC(C)=O)CO[C@@H]1C[C@@H]2O [paclitaxel]
- water solubility: insoluble in water
